No constants are given. Whether binding was seen depends on the method and setting. For part of these data: Binding seen in cells or lysates may run through a third protein. Some entries that bind do so weakly or less than the wild type. Where a sequence is shown, tags or fusion partners need not be part of it.
T1: FLAG-HA-LBD37 (Arabidopsis thaliana) (UniProt Q9FN11)
T1 sequence: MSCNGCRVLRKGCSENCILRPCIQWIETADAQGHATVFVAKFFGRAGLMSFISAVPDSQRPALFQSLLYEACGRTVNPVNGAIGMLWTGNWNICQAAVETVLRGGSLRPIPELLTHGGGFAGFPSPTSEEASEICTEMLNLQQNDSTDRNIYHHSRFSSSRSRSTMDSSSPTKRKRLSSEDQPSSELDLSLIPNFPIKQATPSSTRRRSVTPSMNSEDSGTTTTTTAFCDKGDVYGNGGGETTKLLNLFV

Amino acid sequences for entries named in this document (tags omitted).
UniProt Q9LN63: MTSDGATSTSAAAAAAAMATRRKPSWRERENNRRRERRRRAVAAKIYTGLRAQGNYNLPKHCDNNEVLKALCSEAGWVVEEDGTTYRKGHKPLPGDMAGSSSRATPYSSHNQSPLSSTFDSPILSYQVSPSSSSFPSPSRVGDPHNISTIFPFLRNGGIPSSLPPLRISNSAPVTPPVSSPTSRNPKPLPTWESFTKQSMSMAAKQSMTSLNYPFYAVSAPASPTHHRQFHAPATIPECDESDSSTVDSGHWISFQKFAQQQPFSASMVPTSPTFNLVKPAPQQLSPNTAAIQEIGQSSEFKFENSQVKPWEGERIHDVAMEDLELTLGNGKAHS

B1: GAD-LBD37 (LBD37 fused with the GAL4 activation domain) (protein, UniProt Q9FN11 1-250)
chain: MSCNGCRVLRKGCSENCILRPCIQWIETADAQGHATVFVAKFFGRAGLMSFISAVPDSQRPALFQSLLYEACGRTVNPVNGAIGMLWTGNWNICQAAVETVLRGGSLRPIPELLTHGGGFAGFPSPTSEEASEICTEMLNLQQNDSTDRNIYHHSRFSSSRSRSTMDSSSPTKRKRLSSEDQPSSELDLSLIPNFPIKQATPSSTRRRSVTPSMNSEDSGTTTTTTAFCDKGDVYGNGGGETTKLLNLFV
B2: LBD38 in pGADT7 (yeast two-hybrid prey) (protein, UniProt Q9SN23 1-247)
chain: MSCNGCRVLRKGCSENCILRPCIQWIESPEAQGHATVFVAKFFGRAGLMSFISAVPESQCPALFQSLLYEACGRTVNPVNGAVGLLWTGNWNVCQAAVETVLRGGSLKPIPELLNGGGFAGFPSPTSDEASEICTEMLNLRKADDSGDRNIYHHCRFSSSRSRSRSTASPPKRKRLSSEQQPSSELDLSLIPIYPIKTLPFKEDTPSMYSEESVTTVSFQNNNAGDRYVRCGGGGGGATTKLLNLFA
B3: LBD39 in pGADT7 (yeast two-hybrid prey) (protein, UniProt Q9SZE8 1-240)
chain: MSCNGCRVLRKGCSETCILRPCLQWIESAESQGHATVFVAKFFGRAGLMSFISSVPELQRPALFQSLLFEACGRTVNPVNGAVGMLWTRNWHVCQAAVETVLRGGTLRPISDLLESPSLMISCDESSEIWHQDVSRNQTHHCRFSTSRSTTEMKDSLVNRKRLKSDSDLDLQVNHGLTLTAPAVPVPFLPPSSFCKVVKGDRPGSPSEESVTTSCWENGMRGDNKQKRNKGEKKLLNLFV
B4: MBP-LBD37 (protein, UniProt Q9FN11 1-250)
chain: MSCNGCRVLRKGCSENCILRPCIQWIETADAQGHATVFVAKFFGRAGLMSFISAVPDSQRPALFQSLLYEACGRTVNPVNGAIGMLWTGNWNICQAAVETVLRGGSLRPIPELLTHGGGFAGFPSPTSEEASEICTEMLNLQQNDSTDRNIYHHSRFSSSRSRSTMDSSSPTKRKRLSSEDQPSSELDLSLIPNFPIKQATPSSTRRRSVTPSMNSEDSGTTTTTTAFCDKGDVYGNGGGETTKLLNLFV
B5: LBD37 fused with cLUC of luciferase (protein, UniProt Q9FN11 1-250)
chain: MSCNGCRVLRKGCSENCILRPCIQWIETADAQGHATVFVAKFFGRAGLMSFISAVPDSQRPALFQSLLYEACGRTVNPVNGAIGMLWTGNWNICQAAVETVLRGGSLRPIPELLTHGGGFAGFPSPTSEEASEICTEMLNLQQNDSTDRNIYHHSRFSSSRSRSTMDSSSPTKRKRLSSEDQPSSELDLSLIPNFPIKQATPSSTRRRSVTPSMNSEDSGTTTTTTAFCDKGDVYGNGGGETTKLLNLFV

What was measured:
[1] = biological target: T1, FLAG-HA-LBD37 (Arabidopsis thaliana); test: co-IP; root extracts of 14-day-old 35S:FLAG-HA-LBD37/Col-0 plants; HA agarose beads, IP buffer 10 mM Tris pH 7.5, 0.5% Nonidet P-40, 2 mM EDTA, 150 mM NaCl, 4°C 2 h; detected with anti-BES1 antibody
[2] = biological target: GBK-BES1 (BRI1 EMS SUPPRESSOR 1 fused with the GAL4 binding domain) (Arabidopsis thaliana) (UniProt Q9LN63); test: two-hybrid; yeast AH109; BES1 in pGBKT7 as bait, LBDs in pGADT7 as prey; growth on SD/-Leu/-Trp/-His/-Ade at 30°C for 3 days
[3] = biological target: HIS-BES1 (Arabidopsis thaliana) (UniProt Q9LN63); test: pull-down; HIS-BES1 and MBP-LBD37 coincubated, pulled down with HIS agarose beads, detected with anti-MBP antibody; in vitro; both purified
[4] = biological target: BES1 fused with nLUC of luciferase (Arabidopsis thaliana) (UniProt Q9LN63); test: split reporter; split-luciferase complementation in Nicotiana benthamiana leaves; BES1-nLUC and LBD37-cLUC; 48 h after infiltration, 1 mM D-luciferin

Molecule	binding [2]	also measured
dephosphorylated form of BES1 (endogenous) (from UniProt Q9LN63 1-335)		binding [1]: binds
B1	binds	
B2	binds	
B3	binds	
B4		binding [3]: binds
B5		binding [4]: binds

— PMC9555238, “Interaction of BES1 and LBD37 transcription factors modulates brassinosteroid-regulated root forging response under low nitrogen in arabidopsis”
